Record: PubChem BioAssay AID1159584 (Peter MacCallum Cancer Centre, 2016)
The whole screen tested about 18,000 reagents; shown is a part drawn at random. Not all columns of the deposit are shown. No sequences are given here. The record does not give: the amount of reagent, the time to read-out.

- Purpose: 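Genes whose loss is lethal only together with E-cadherin loss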 (primary screen)
- Cell system: human MCF10A breast epithelial cells, parental and CDH1-null
- Knock-down reagent: siRNA against human genes
- Read-out: 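ATP luminescence (CellTiter-Glo) viability per line relative to mean mock wells over all plates, and the ratio of CDH1-null to parental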
- Scale: CDH1-null / parental viability ratio: higher = CDH1-null cells survive relatively better than parental

The first 2 records, to show the layout:
no.	gene	CDH1-null / parental viability ratio
1	PRR14 (proline rich 14)	1.07
2	SLC39A11	1.22

The list itself, from the start:
no.	gene	CDH1-null / parental viability ratio
1	PRR14 (proline rich 14)	1.07
2	SLC39A11	1.22
3	DDX46 (DEAD-box helicase 46)	0.93
4	ADAP2 (ArfGAP with dual PH domains 2)	1.22
5	NAP1L3 (nucleosome assembly protein 1 like 3)	0.98
6	ZNF770 (zinc finger protein 770)	1.03
7	NLRC3 (NLR family CARD domain containing 3)	1.01
8	SEMA6A (semaphorin 6A)	1.12
9	RASSF4 (Ras association domain family member 4)	1.53
10	DNM1L (dynamin 1L)	0.84
11	APBA1 (amyloid beta precursor protein binding family A member 1)	1.05
12	CFB (complement factor B)	1.11
13	SPOCK3	1.51
14	HEPN1 (hepatocellular carcinoma, down-regulated 1)	1.12
15	GCNA (germ cell nuclear acidic peptidase)	0.75
16	MAP1S (microtubule associated protein 1S)	0.92
17	NFIB (nuclear factor I B)	0.64
18	POMGNT2	0.98
19	SOX12 (SRY-box transcription factor 12)	0.96
20	TRMT2B (tRNA methyltransferase 2B)	1.38
21	NECTIN3 (nectin cell adhesion molecule 3)	0.8
22	TRMT61B (tRNA methyltransferase 61B)	1.07
23	RPP14 (ribonuclease P/MRP subunit p14)	1.16
24	IGSF8 (immunoglobulin superfamily member 8)	1.29
25	TLX1NB (TLX1 neighbor)	1.05
26	NFE2 (nuclear factor, erythroid 2)	1.1
27	UQCC4 (ubiquinol-cytochrome c reductase complex assembly factor 4)	1.17
28	OR5J2 (olfactory receptor family 5 subfamily J member 2)	1.13
